# Screening data, single-dose tests

Protein sequences, listed by entry. Tags and fused reporters are not part of them. Residues count along the entry.
UniProt Q4DA54, 1-478: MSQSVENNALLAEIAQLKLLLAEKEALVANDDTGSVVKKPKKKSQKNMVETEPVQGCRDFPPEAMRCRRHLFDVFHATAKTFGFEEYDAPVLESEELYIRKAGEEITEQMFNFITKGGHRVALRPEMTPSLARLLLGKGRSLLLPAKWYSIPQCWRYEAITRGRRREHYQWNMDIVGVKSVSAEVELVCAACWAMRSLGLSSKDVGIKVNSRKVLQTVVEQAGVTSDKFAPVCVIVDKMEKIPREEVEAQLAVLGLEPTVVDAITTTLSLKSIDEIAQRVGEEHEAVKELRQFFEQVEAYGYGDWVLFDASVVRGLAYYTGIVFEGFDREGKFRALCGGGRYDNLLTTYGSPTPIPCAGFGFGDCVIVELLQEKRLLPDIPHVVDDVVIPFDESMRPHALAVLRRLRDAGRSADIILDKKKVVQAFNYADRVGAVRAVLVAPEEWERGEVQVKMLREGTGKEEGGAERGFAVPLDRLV
UniProt A4I591, 1-473: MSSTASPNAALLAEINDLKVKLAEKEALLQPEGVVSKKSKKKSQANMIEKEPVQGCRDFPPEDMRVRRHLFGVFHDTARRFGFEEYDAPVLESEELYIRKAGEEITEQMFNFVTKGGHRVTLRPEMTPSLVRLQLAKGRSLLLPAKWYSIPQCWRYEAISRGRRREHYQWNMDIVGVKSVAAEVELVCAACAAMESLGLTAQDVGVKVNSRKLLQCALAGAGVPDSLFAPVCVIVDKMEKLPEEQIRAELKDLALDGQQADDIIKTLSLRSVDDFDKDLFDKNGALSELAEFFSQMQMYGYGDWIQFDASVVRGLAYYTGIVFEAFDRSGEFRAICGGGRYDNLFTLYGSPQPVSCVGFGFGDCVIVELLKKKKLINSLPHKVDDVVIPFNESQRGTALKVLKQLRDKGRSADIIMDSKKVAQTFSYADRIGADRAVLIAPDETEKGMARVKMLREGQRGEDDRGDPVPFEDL

Data taken from ChEMBL document CHEMBL3988442, “University of Dundee, Small-Polar-MMV Screening Library” (2021).

Results are given as percent effect. The controls that fix the scale are not given in the record; negative values are as filed. Compounds were drawn at random from those tested, without regard to their results. A dash means the value is not listed here; it may have been measured.

Toxoplasma: 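Assay of Toxoplasma gondii numbers, read through their beta-galactosidase reporter with a colour substrate. Compounds at 10 µM. The record gives no direction; the compounds picked for IC50 retests had high values, so higher reads as fewer parasites. About 67,000 compounds were tested under these conditions; 0.38% (about 260) showed 50% or more at least once.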
TcHisRS: 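Enzyme assay of histidyl-tRNA synthetase; the read-out is not stated. Target: Histidine-tRNA ligase, Trypanosoma cruzi CL Brener (UniProt Q4DA54). Tested at 30 µM. The record gives no direction; compounds that gave an IC50 in retests scored well above the rest, so higher reads as stronger inhibition. About 69,000 compounds were tested under these conditions; 0.045% (about 31) showed 50% or more at least once.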
LiHisRS: 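Enzyme assay of histidyl-tRNA synthetase; the read-out is not stated. Target: Histidine-tRNA ligase, Leishmania infantum (UniProt A4I591). Compounds at 30 µM. The record gives no direction; compounds that gave an IC50 in retests scored well above the rest, so higher reads as stronger inhibition. The assay is labelled LdHisRS but filed under L. infantum. Of about 69,000 compounds tested this way, about 410 (0.6%) reached 50% or more in at least one test.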
T. brucei: 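Whole-parasite assay of Trypanosoma brucei over 72 hours; the read-out is not stated. Concentration: 30 µM. Higher reads as stronger inhibition (inferred: compounds with an IC50 in retests scored well above the rest). Values scatter widely below zero; nearly all retest evidence comes from the higher of the two concentrations used. Of about 64,000 compounds tested this way, about 940 (1.5%) reached 50% or more in at least one test.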

| structure | Toxoplasma | TcHisRS | LiHisRS | T. brucei |
|---|---|---|---|---|
| `COc1ccc(OC(F)F)c(NCC(=O)NCC(=O)N2CCCC2)c1` | 29.51 | -1.98 | 20.65 | 8.066 |
| `COC1CCCN(C2CCN(c3cccc(-c4csc(C)n4)c3)CC2)C1` (centres undefined) | -0.4528 | 7.595 | 12.5 | -7.006 |
| `Cc1cccc(N2CC[C@@H]3CN(Cc4csc(C)n4)CCO[C@@H]3C2)n1` | - | 7.104 | 21.57 | - |
| `COCc1cccc(C(=O)N(C)Cc2ncc(C)c(OC)c2C)c1` | -13.3 | 3.704 | 15.05 | -6.836 |
| `[H][C@]12CC[C@@]3(N=C(C)NC3=O)[C@@]1([H])CN(C(=O)NCCc1ccccc1)C2` | 1.118 | - | - | 37.48 |
| `CC(C)(NC(=O)C1CCCN(C2CCCC2)C1)c1nnc(N)s1` (centres undefined) | 4.082 | -23.86 | -31.67 | -39.1 |
| `Cc1cnc(-c2nc(-c3cccc(CN4CCOCC4)c3)no2)cn1` | 15.29 | 7.65 | 13.7 | -23.54 |
| `Cn1cc(CN2CCOC3(CCCN(C(=O)c4ccco4)C3)C2)cn1.O=C(O)C(F)(F)F` (centres undefined) | 26.02 | - | - | -8.817 |
| `COCC1CN(C(=O)c2cccc(C)n2)Cc2nccn2C1.O=C(O)C(F)(F)F` (centres undefined) | -5.059 | - | - | -25.55 |
| `O=S(=O)(CCN1CCCCC1Cn1cccn1)c1ccccc1` (centres undefined) | 12.53 | 0 | 14.13 | -0.8972 |
| `CC(C)n1ccnc1CN1CCOC(CCc2ccccc2)C1` (centres undefined) | 4.211 | 5.435 | 14.47 | -150.3 |
| `CCC[C@@H]1CN(Cc2cc3c(cc2OC)OCO3)C[C@H]1C(=O)O` | 13.52 | 2.89 | 14.67 | 2.297 |
| `O=C(O)C(F)(F)F.O=C(O)C(F)(F)F.[H][C@]12CCN(C(=O)c3ccc4ncccc4c3)C[C@@]1([H])OCCN(C)C2` | -24.78 | - | - | -13.88 |
| `CCc1ccc(OCC(O)CN2CCN(CCO)CC2)cc1` (centres undefined) | - | 5.539 | -2.655 | - |
| `COc1c(NC(=O)N(C)CCOc2ccc(F)cc2)c(C)nn1C` | 2.179 | 3.665 | 10.34 | -42.44 |
| `Cn1nc2c(cc1=O)CN(Cc1coc(-c3ccccc3)n1)CC2` | 16.71 | 4.942 | 44.74 | -6.992 |
| `CN(CCCOc1ccc(F)cc1)S(=O)(=O)c1cnn(C)c1` | 15.76 | -2.632 | 14.16 | - |
| `COCc1cc(N(CC(F)F)C2CC2)n2ncnc2n1` | -3.702 | 3.704 | 23.53 | 8.68 |
| `Cc1nc(CCCNC(=O)Nc2cc(F)cc(F)c2)n[nH]1` | 5.295 | 10.89 | 4.762 | -4.289 |
| `CCS(=O)(=O)N1C[C@H]2CC[C@](O)(c3ccc(C)cc3)[C@H]2C1` | - | 3.731 | 5.263 | - |
| `O=C(CCc1ccncc1)NCc1csc(Br)c1` | 16.46 | 3.704 | 5.128 | - |
| `Cc1ccc(NC2CCN(C(=O)c3ccc(Cl)o3)CC2)nn1` | 5.081 | 3.422 | 23.2 | -62.25 |
| `COc1ccc(CN2CCCCC2c2n[nH]cc2-c2cc(C)no2)cc1.Cl` (centres undefined) | 12.17 | - | - | 57.52 |
| `CCn1ccnc1C1CCN(Cc2cccc(C)n2)CC1` | 0.2664 | 10.24 | 24.18 | -34.54 |
| `CN1CCCC(C(=O)N2CCC(Oc3ncccn3)CC2)C1` (centres undefined) | 14.93 | 0 | 5.217 | 13.55 |
| `Cc1ccc(CN2C[C@@H]3COC[C@]3(COc3ccc(C#N)cn3)C2)o1` | - | 4.386 | 19.35 | - |
| `O=C1CC2(CCN(C(=O)c3csc(-c4ccccc4)n3)C2)C(=O)N1` (centres undefined) | 3.816 | -4.167 | -183 | 21.57 |
| `Cc1cc(C2NC(=O)CN2Cc2ccc(Br)cc2)cc(C)c1O` (centres undefined) | 27.34 | 5.941 | 7.143 | 94.42 |
| `Cc1ncc(CNCC(=O)NCC(F)(F)F)n1-c1ccccc1` | -5.978 | 11.73 | 0 | -2.564 |
| `CCOc1ccc(-n2nnc(C(=O)O)c2-c2ccccn2)cc1` | 6.787 | -1.087 | 31.43 | 7.896 |
| `CC(CNC(=O)Nc1ccc(F)cc1-n1cccc1)N1CCOCC1` (centres undefined) | 9.443 | 5.83 | 17.65 | 6.449 |
| `Cc1nc(N2CCCCC2)ncc1-c1cc(=O)[nH]c(N2CCCC2)n1` | 3.444 | 1.136 | 3.333 | -22.21 |
| `COc1ccc(Br)c(NC(=O)NCc2ncnn2C)c1` | 2.754 | 2.762 | 1.036 | -1.779 |
| `CC(=O)N1CCC(c2cncc(N3CCCC(O)C3)n2)CC1` (centres undefined) | 10.28 | 5.426 | 14.18 | 10.72 |
| `Cc1c(C2CCOC(C)(C)C2)nc(N)c(C#N)c1-c1ccc(O)cc1` (centres undefined) | 13.43 | 6.061 | -3.191 | 5.857 |
| `CN(C)CC(=O)N1CCCC1c1ccccn1` (centres undefined) | -19.39 | 1.149 | 8.633 | -10.76 |
| `O=C(c1cc[nH]n1)N1CCCC1c1cncc(CN2CCOCC2)n1` (centres undefined) | 1.052 | 8.046 | 14.29 | -9.259 |
| `COc1cc(C(=O)NCc2ccc3c(c2)CCCN3C)cc(OC)c1Br` | -26.22 | 12.32 | 21.05 | 56.02 |
| `Cc1ccc(C)c(-n2ncc(C(=O)N(C)CCc3ccccn3)c2N)c1` | 31.06 | 9.091 | 11.88 | -13.75 |
| `COC(=O)CC1CN(Cc2ccn(-c3ccc(F)cc3)n2)CCO1` (centres undefined) | 9.122 | 2.469 | -1.961 | -52.63 |
| `Fc1ccc(OC2CCN(Cc3nnc(-c4ccco4)o3)CC2)cc1` | 1.475 | 10.1 | 7.937 | -19.08 |
| `CCOC(=O)C1CCN(C(=O)CN2CCCC2Cc2ccccc2)CC1` (centres undefined) | -1.063 | 7.389 | 9.091 | -6.025 |
| `Cc1nn(C)c(Cl)c1C1CCCN1C(=O)c1ccc2nncn2c1` (centres undefined) | -2.125 | 3.008 | -7.143 | -48.73 |
| `CCSc1ncc(-c2cc(C3CCC3)nc(N)c2C#N)cn1` | 27.13 | 7.071 | 1.064 | -45.03 |
| `Cc1ccc([C@@H]2CN(C(=O)c3cc(C)no3)C[C@H]2NC(=O)C2CC2)cc1` | -1.724 | 0 | 13.89 | -17.37 |
| `Cc1ccc(CC(=O)N2CCc3nnc(N(C)C)cc3C2)s1` | -6.495 | 9.091 | 19.44 | 6.211 |
| `CC1CCCN(C(=O)c2csc(S(N)(=O)=O)c2)CC1` (centres undefined) | -0.9038 | 0 | 9.434 | -8.435 |
| `CC(C)c1noc(CN2CCN(C(=O)c3ccc(F)cc3)CC2)n1` | -24.55 | 4.07 | 1.786 | -6.447 |
| `O[C@@]1(c2ccccn2)CC[C@H]2CN(Cc3ccccn3)C[C@H]21` | - | 5.556 | 6.186 | - |